Assay results from US11939361B2 (Janssen Pharmaceutica NV, priority 2020, dated 2024).

Test: general procedure: Fmoc solid-phase peptide synthesis; Rink Amide MBHA resin (0.66 mmol/g loading)
Settings: whole synthesis, analytical RP-HPLC, scale of the general procedure 10 g resin, acetate

Ac-[Pen]*-N-T-[W(7-Me)]-[Lys(Ac)]-[Pen]*-Phe[4-(2-aminoethoxy)]-[2-Nal]-[THP]-E-N-[3-Pal]-Sarc-NH2 (*Pen-Pen form disulfide bond)
final HPLC purity: >95%
